From publication PMC6892437
No constants are given. Whether binding was seen depends on the method and setting. In cells and extracts the contact can be indirect. Binding can be weak; no strength is given. Each block holds one molecule with its values, some of them ahead of it.

Chains of the proteins cited; added tags and fusions are not shown. Lines headed by an entry give the natural chain unless they say otherwise; changes in a name come on top.
UniProt O14672: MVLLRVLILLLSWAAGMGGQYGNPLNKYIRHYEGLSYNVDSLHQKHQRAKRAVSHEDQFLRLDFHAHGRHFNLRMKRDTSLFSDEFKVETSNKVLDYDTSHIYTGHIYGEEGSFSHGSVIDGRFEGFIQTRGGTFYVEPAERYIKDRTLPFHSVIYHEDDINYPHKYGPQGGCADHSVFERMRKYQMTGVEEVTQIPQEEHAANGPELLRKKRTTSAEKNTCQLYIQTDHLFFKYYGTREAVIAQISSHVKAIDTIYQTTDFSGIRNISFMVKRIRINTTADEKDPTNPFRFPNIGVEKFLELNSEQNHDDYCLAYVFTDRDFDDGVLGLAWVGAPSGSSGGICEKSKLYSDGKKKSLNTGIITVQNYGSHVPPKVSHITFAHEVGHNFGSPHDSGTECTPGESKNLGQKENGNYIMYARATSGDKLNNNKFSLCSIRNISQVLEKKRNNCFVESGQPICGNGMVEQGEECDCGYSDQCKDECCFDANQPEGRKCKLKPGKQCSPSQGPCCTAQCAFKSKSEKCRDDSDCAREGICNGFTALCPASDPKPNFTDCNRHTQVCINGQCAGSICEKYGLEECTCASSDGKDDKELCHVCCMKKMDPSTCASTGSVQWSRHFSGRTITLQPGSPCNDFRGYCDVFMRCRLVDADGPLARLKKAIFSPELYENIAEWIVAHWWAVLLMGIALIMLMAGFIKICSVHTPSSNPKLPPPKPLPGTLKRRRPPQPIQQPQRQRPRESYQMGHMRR
UniProt O95858: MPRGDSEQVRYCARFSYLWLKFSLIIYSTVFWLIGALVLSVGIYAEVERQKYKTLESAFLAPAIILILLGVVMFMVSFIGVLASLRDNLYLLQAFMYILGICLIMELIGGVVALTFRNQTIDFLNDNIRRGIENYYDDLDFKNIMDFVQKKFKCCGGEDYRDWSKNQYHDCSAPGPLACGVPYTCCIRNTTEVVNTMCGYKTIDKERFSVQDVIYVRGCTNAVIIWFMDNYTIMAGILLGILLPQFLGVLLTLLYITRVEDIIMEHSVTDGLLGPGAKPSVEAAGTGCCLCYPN

Legend:
[1] = molecular target: T1, endogenous Tspan5 (human (endogenous in U2OS and PC3)) (UniProt P62079); test: co-IP; PC3 cells (parental, Tspan5 KO, Tspan15 KO) lysed in 1% Brij 97 or digitonin; immunoprecipitation with anti-ADAM10 or anti-Tspan5 mAbs (TS5-2, TS5-1r), Western blot
T1 sequence: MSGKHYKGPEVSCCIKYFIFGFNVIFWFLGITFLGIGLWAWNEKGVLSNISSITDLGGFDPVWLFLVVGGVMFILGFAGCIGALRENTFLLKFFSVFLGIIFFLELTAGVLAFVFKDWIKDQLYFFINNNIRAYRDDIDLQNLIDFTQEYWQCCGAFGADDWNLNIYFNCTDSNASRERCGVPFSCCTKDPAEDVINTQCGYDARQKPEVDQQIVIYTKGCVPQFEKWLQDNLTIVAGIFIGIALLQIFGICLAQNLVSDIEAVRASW

[2] = molecular target: T2, CD81 (human (endogenous in U2OS)) (UniProt P60033); test: co-IP; U2OS cells transfected or not with Tspan5 or Tspan15, lysed in 1% Brij 97 with 1 mM CaCl2 and MgCl2 (30 mM Tris pH 7.4, 150 mM NaCl); immunoprecipitation of ADAM10 or CD81, Western blot
T2 sequence: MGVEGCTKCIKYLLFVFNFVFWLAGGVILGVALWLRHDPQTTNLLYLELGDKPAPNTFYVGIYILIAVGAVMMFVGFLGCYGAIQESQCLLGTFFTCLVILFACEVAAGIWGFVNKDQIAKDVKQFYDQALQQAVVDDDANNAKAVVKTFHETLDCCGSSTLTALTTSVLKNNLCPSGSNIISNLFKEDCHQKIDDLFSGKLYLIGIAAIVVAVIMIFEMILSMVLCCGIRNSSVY

[3] = molecular target: ADAM10 (human (endogenous in U2OS and PC3)) (UniProt O14672); test: co-IP; Tspan15-transfected U2OS cells, lysed in 1% Brij 97 with 1 mM CaCl2 and MgCl2; immunoprecipitation of ADAM10, Western blot
[4] = molecular target: ADAM10 (human (endogenous in U2OS and PC3)), O14672; test: co-IP; U2OS cells transfected or not with Tspan5 or Tspan15, lysed in 1% Brij 97 with 1 mM CaCl2 and MgCl2 (30 mM Tris pH 7.4, 150 mM NaCl); immunoprecipitation of ADAM10 or CD81, Western blot; settings: remark: other sources report otherwise
[5] = molecular target: ADAM10 (human (endogenous in U2OS and PC3)) (UniProt O14672); test: co-IP; PC3 cells (parental, Tspan5 KO, Tspan15 KO) lysed in 1% Brij 97 or digitonin; immunoprecipitation with anti-ADAM10 or anti-Tspan5 mAbs (TS5-2, TS5-1r), Western blot
[6] = molecular target: ADAM10 (human (endogenous in U2OS and PC3)) (UniProt O14672); test: co-IP; U2OS cells transfected or not with Tspan5 or Tspan15, lysed in 1% Brij 97 with 1 mM CaCl2 and MgCl2 (30 mM Tris pH 7.4, 150 mM NaCl); immunoprecipitation of ADAM10 or CD81, Western blot

binding [1]: binds
binding [2]: binds
Molecule: ADAM10 (from UniProt O14672)

binding [3]: binds
Molecule: untagged Tspan15 (ectopically expressed) (from UniProt O95858 1-294)

binding [4]: binds
B1: CD9, P21926 1-228 (protein)
chain: MPVKGGTKCIKYLLFGFNFIFWLAGIAVLAIGLWLRFDSQTKSIFEQETNNNNSSFYTGVYILIGAGALMMLVGFLGCCGAVQESQCMLGLFFGFLLVIFAIEIAAAIWGYSHKDEVIKEVQEFYKDTYNKLKTKDEPQRETLKAIHYALNCCGLAGGVEQFISDICPKKDVLETFTVKSCPDAIKEVFDNKFHIIGAVGIGIAVVMIFGMIFSMILCCAIRRNREMV

binding [5]: binds
binding [6]: binds
B2: endogenous Tspan5 (protein, UniProt P62079 1-268)
chain: MSGKHYKGPEVSCCIKYFIFGFNVIFWFLGITFLGIGLWAWNEKGVLSNISSITDLGGFDPVWLFLVVGGVMFILGFAGCIGALRENTFLLKFFSVFLGIIFFLELTAGVLAFVFKDWIKDQLYFFINNNIRAYRDDIDLQNLIDFTQEYWQCCGAFGADDWNLNIYFNCTDSNASRERCGVPFSCCTKDPAEDVINTQCGYDARQKPEVDQQIVIYTKGCVPQFEKWLQDNLTIVAGIFIGIALLQIFGICLAQNLVSDIEAVRASW
binding [3]: no binding (only in Tspan15-transfected cells)
